# From the supplement of paper PMC10727501
# The list shows a part of the results. Repeats in this data set agree poorly, so a single value says little.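 Researchers measured free-swimming zebrafish larvae's O-bend response probability to dark flashes (naive: first five; training: remaining flashes of four 60-flash blocks; test: later 60-flash block) and OMR turning toward alternating leftward/rightward LED motion. Six treated larvae were compared to sixty 0.1% DMSO controls, with |SSMD|≥2 marking a hit.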
# Tested on: Danio rerio larvae (5 dpf, TLF)
# Assay: OMR-Perf (SSMD vs DMSO vehicle); higher = higher than vehicle (e.g. higher dark-flash O-bend response probability, or better optomotor performance)
# Conditions: 10 µM; pre-incubation: 30-90 min
row,SMILES,OMR-Perf
1,O=C1NC(=O)C(=Cc2ccc(-c3ccc(F)cc3)o2)S1 (stereo in doubt),-0.879
2,Cn1nnc2c(C(N)=O)ncn2c1=O [Temozolomide],0.525
3,Nc1nc(=O)c2c([nH]1)NC[C@H](CNc1ccc(C(=O)N[C@@H](CCC(=O)[O-])C(=O)[O-])cc1)N2C=O.[Ca+2] [Calcium levofolinate (Calcium Folinate)],-0.177
4,NC(=O)NO [Hydroxyurea],0.175
5,O=C1CCC(N2C(=O)c3ccccc3C2=O)C(=O)N1 (configuration not stated) [Thalidomide],-0.115
6,Nc1nc(=O)[nH]cc1F [Flucytosine],-0.0771
7,C[C@]12CCC(=O)C=C1[C@@H]1C[C@@H]1[C@H]1[C@@H]3[C@@H]4C[C@@H]4[C@]4(CCC(=O)O4)[C@@]3(C)CC[C@H]12 [Drospirenone],-0.819
8,CC(C)(Oc1ccc(Cl)cc1)C(=O)O [Clofibric Acid],-0.63
9,CCc1c(O)cc(O)c(C(=O)c2ccc(OCCN3CCOCC3)c(OC)c2)c1CC(=O)N(CCOC)CCOC,0.336
10,NNC(=O)c1ccncc1.Nc1ccc(C(=O)O)c(O)c1 [Pasiniazid],-0.295
11,O=C1NC(=O)/C(=C/c2ccc3nccc(-c4ccncc4)c3c2)S1,-0.351
12,O=N[O-].[Na+] [Sodium Nitrite],-0.546
13,CN(C)/N=N/c1[nH]cnc1C(N)=O [Dacarbazine],-0.282
14,COc1ccc(-c2coc3cc(O)ccc3c2=O)cc1 [Formononetin],0.116
15,CC(=O)[C@@H]1CC[C@H]2[C@@H]3CC=C4C[C@@H](O)CC[C@]4(C)[C@@H]3CC[C@]12C [Pregnenolone],0.00809
16,CCCCOc1ccc(OCCCN2CCOCC2)cc1.Cl [Pramoxine HCl],-0.154

# Part of the list above, bar-delimited.
row | SMILES | OMR-Perf
10 | NNC(=O)c1ccncc1.Nc1ccc(C(=O)O)c(O)c1 [Pasiniazid] | -0.295
11 | O=C1NC(=O)/C(=C/c2ccc3nccc(-c4ccncc4)c3c2)S1 | -0.351
12 | O=N[O-].[Na+] [Sodium Nitrite] | -0.546
13 | CN(C)/N=N/c1[nH]cnc1C(N)=O [Dacarbazine] | -0.282
14 | COc1ccc(-c2coc3cc(O)ccc3c2=O)cc1 [Formononetin] | 0.116
15 | CC(=O)[C@@H]1CC[C@H]2[C@@H]3CC=C4C[C@@H](O)CC[C@]4(C)[C@@H]3CC[C@]12C [Pregnenolone] | 0.00809

# More results follow.

row,SMILES,OMR-Perf
1,CN(CCOc1ccc(CC2SC(=O)NC2=O)cc1)c1ccccn1.O=C(O)/C=C\C(=O)O (configuration not stated) [Rosiglitazone maleate],-0.239
2,O=C1Cc2c([nH]c3ccc(Br)cc23)-c2ncccc2N1 [1-Azakenpaullone],-0.232
3,CN(C)C(=O)Nc1cccc(-c2ccc(N(C)C)cc2)c1 [Atglistatin],-0.461
4,C=C1C(=O)[C@]23C(CC[C@@H]1[C@H]2O)[C@]12CO[C@]3(O)[C@H](O)[C@@H]1C(C)(C)CC[C@@H]2O (some centres not stated) [Oridonin],0.188
5,Cc1ccc([C@@H]2O[C@H](CO)[C@@H](O)[C@H](O)[C@H]2O)cc1Cc1ccc(-c2ccc(F)cc2)s1 [Canagliflozin],0.41
6,C=CC(=O)Nc1cccc(Oc2nc(Nc3ccc(N4CCN(C)CC4)cc3OC)ncc2Cl)c1,-0.439
7,CN(C)CCOC(C)(c1ccccc1)c1ccccn1.O=C(O)CCC(=O)O (configuration not stated) [Doxylamine Succinate],-0.27
8,COc1ccc(O)cc1 [Mequinol],-0.471
9,Cc1c(NC(=O)OC[C@@H]2COCCN2)cn2ncnc(Nc3ccc4c(cnn4Cc4cccc(F)c4)c3)c12.Cl,0.0203
10,O.O=c1c(O)c(-c2ccc(O)cc2O)oc2cc(O)cc(O)c12 [Morin Hydrate],0.361
11,C[C@H]1OC(O)[C@H](O)[C@H](O)[C@H]1O.O (stereo partly drawn) [L-(+)-Rhamnose Monohydrate],0.0693
12,Cc1ccc(S(=O)(=O)n2c(N)nc3ccccc32)cc1 [ML130 (Nodinitib-1)],-0.459
13,COc1c2occc2cc2ccc(=O)oc12 [Methoxsalen],0.258
14,Cc1cc(NS(=O)(=O)c2ccc(N)cc2)no1 [Sulfamethoxazole],-0.193
15,CO[C@H]1/C=C/O[C@@]2(C)Oc3c(C)c(O)c4c(c3C2=O)C2=NC3(CCN(CC(C)C)CC3)NC2=C(NC(=O)/C(C)=C/C=C/[C@H](C)[C@H](O)[C@@H](C)[C@@H](O)[C@@H](C)[C@H](OC(C)=O)[C@@H]1C)C4=O [Rifabutin],0.164
16,C[C@@H]1[C@@H](OC(=O)CCC(=O)O)O[C@H]2O[C@@]3(C)CC[C@H]4[C@@H](C)CC[C@@H]1[C@@]24OO3 [Artesunate],-0.0128
